Consider 36 compounds from PubChem BioAssay AID2685 (National Center for Advancing Translational Sciences (NCATS), 2010).

This experiment is described as follows: qHTS Assay for Lipid Storage Modulators in Drosophila S3 Cells.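 For cell number change: cells counted by Cell Tracker Red CMTPX staining in the red channel.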 The conditions noted are these: BODIPY lipid droplet fluorescence, 18-24 h; for cell number change: measured here: cell count max response, cells fed with added oleic acid. The gist of the method: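 Laser-scanning cytometry quantifies lipid droplet accumulation (500–530 nm total intensity; droplet/cell object ratio) in oleic acid-fed (400 uM added) Drosophila S3 cells treated with a concentration series. 20 uM Triacsin C defined 100% inhibition.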
(In general: In qHTS, concentration-response curves come from the screen itself.)

[1] abbreviates: measured here: lipid fluorescence (Fed channel) AC50, cells fed with added oleic acid.
Where [2] appears, read: measured here: cell number channel AC50, cells fed with added oleic acid.

Some of the results follow. Further columns of the screen follow, without active or inactive calls. Compounds called inactive in the main read-out are mostly missing here. The note in brackets gives the kind of curve behind each potency; many fits are weak.

What is called AC50 is the midpoint of the concentration-response curve, whichever way the signal moves. With `Cc1cc(NC(=O)CSc2nnc(NCc3ccccc3)s2)no1`, the cell number change was -17%. Besides, the AC50 under setting [1] was 0.326 µM [falling, full curve].

Take `Cc1ccc(C)c(N2CCN(C(=O)c3ccc(Cn4c(=S)[nH]c5ccc(N6CCOCC6)cc5c4=O)cc3)CC2)c1`: the cell number change was found to be 65.4%. Besides, the AC50 under setting [2] is 8.2 µM [rising, partial curve].

For the compound `Cc1ccc(NC(=O)CCNC(=O)Cn2ccc3ccccc3c2=O)cc1F`, the cell number change was 11.3%. Besides, the AC50 under setting [1] was 11.6 µM [falling, single point].

Take `CCOC(=O)c1c(-c2cccs2)csc1NC(=O)COC(=O)c1c(C)noc1C`: the cell number change was -18.6%.

Consider `O=S(=O)(c1ccc(NC2CCCCC2)cc1)N1CCOCC1`, for which the cell number change is -19.9%. Further, the AC50 under setting [1] is 20.6 µM [rising, single point].

With `Cc1ccc(Nc2cnn(C34CC5CC(CC(CC(=O)O)(C5)C3)C4)c(=O)c2Cl)cc1`, the cell number change is -9.44%. The AC50 under setting [1] was 29.1 µM [falling, single point].

`CCOc1ccccc1NC(=O)C1CCCCN1S(=O)(=O)c1ccccc1` (configuration not stated): the cell number change was -12.2%.

`N=c1c2c(-c3ccccc3)c(-c3ccccc3)n(Cc3ccccc3)c2ncn1CCO`: the cell number change was determined as 7.75%. Besides, under setting [1], the AC50 was 4.11 µM [falling, partial curve, poor fit].

As for `O=C(NCc1cccs1)c1cc(S(=O)(=O)N2CCOCC2)ccc1N1CCCC1`, the cell number change was found to be 12.5%.

`O=C(COC(=O)c1cc(S(=O)(=O)N2CCc3ccccc3C2)ccc1Cl)NCc1ccco1`: the cell number change turned out to be 32.5%. The AC50 under setting [2] is 23.1 µM [rising, single point]. The AC50 under setting [1] was 18.4 µM [rising, single point].

For the compound `O=C(NCCSCc1ccccc1)c1ccc(C2SCC(=O)N2Cc2ccccc2)cc1` (configuration not stated), the cell number change is -39.4%. Also, under setting [2], the AC50 was 20.6 µM [falling, single point]. Moreover, the AC50 under setting [1] is 0.731 µM [rising, single point].

As to `Cc1ccc(S(=O)(=O)N2CCC(C(=O)N3CCCC(C(F)(F)F)C3)CC2)cc1C` (configuration not stated), the cell number change was -21.5%. The AC50 under setting [1] was 0.651 µM [rising, full curve, poor fit].

With `CCn1nnc(-c2ccccc2NC(=O)C(F)(F)F)n1`, the cell number change stood at 68.2%. In addition, the half-maximal activity concentration (AC50) under setting [2] was 14.6 µM [rising, partial curve]. Further, under setting [1], the AC50 was 29.1 µM [rising, single point].

Consider `Cc1ccc2[nH]c3c(c2c1)CCN(C)C3`, for which the cell number change was found to be 5.22%. Further, the AC50 under setting [1] was 4.61 µM [rising, full curve, poor fit].

Take `COc1ccccc1Nc1nc(N)nc(-c2cc3ccccc3o2)n1`: the cell number change worked out at 115%. Under setting [2], the half-maximal activity concentration (AC50) was 20.6 µM [rising, single point]. Moreover, the AC50 under setting [1] is 2.91 µM [rising, partial curve].

For `CN1CCN(S(=O)(=O)Cc2ccccc2Cl)CC1`, the cell number change is -13.9%. In addition, the AC50 under setting [1] is 0.206 µM [falling, full curve, poor fit].

Regarding `O=[N+]([O-])c1ccc(-[n+]2ccc3ccccc3c2)c([N+](=O)[O-])c1`, the cell number change is -60.1%. For the same compound, under setting [2], the AC50 was 18.4 µM [falling, partial curve]. For the same compound, the AC50 under setting [1] is 0.82 µM [rising, partial curve, poor fit].

On to `O=C(/C=C/c1ccco1)NC(=S)Nc1ccc(Cl)cn1`, for which the cell number change was 29.9%. In addition, under setting [1], the AC50 is 6.51 µM [rising, partial curve, poor fit].

For `CN(C(=O)COC(=O)C1CCN(S(=O)(=O)c2ccc3c(c2)OCCO3)CC1)C1CCS(=O)(=O)C1` (configuration not stated), the cell number change was -26%. The AC50 under setting [1] is 0.326 µM [falling, full curve].

In the case of `O=C(NCc1nc(-c2ccccc2)cs1)c1ccccc1`, the cell number change is -8%. The AC50 under setting [1] is 0.164 µM [falling, full curve, poor fit].

With `CC1CCCC(C)N1C(=O)COc1ccc(-c2nnco2)cc1` (configuration not stated), the cell number change is 26.7%. The AC50 under setting [1] is 20.6 µM [rising, single point].

Turning to `O=C(NCCc1ccc(Cl)cc1)C1CCCN1C(=O)NCc1ccccc1` (configuration not stated), the cell number change is -9.52%. Besides, under setting [1], the AC50 is 0.00461 µM [falling, full curve, poor fit].

As to `CC(C)Nc1ccc(C(CC(N)=O)NC(=O)c2ccccc2)cc1[N+](=O)[O-]` (configuration not stated), the cell number change was -6.89%. Besides, under setting [1], the AC50 was 32.6 µM [falling, single point].

On to `COc1ccc(N=Cc2oc3ccc4ccccc4c3c2O)cc1`, for which the cell number change came out at 22.8%. Further, under setting [1], the AC50 is 29.1 µM [falling, single point].

Regarding `CC(C)(C)OC(=O)N[C@H](C(=O)OC(C)(C)C)c1ccc(Br)cc1`, the cell number change was -34.8%. Besides, under setting [2], the AC50 is 6.51 µM [falling, single point]. In addition, the AC50 under setting [1] is 5.8 µM [falling, single point].

Take `O=C(Nc1ccc(F)cc1)c1ccc(S(=O)(=O)NCc2cccnc2)cc1`: the cell number change was -32.4%. For the same compound, the AC50 under setting [2] was 0.164 µM [falling, full curve, poor fit].

Take `COc1ccc(Cl)cc1S(=O)(=O)N1CCC(C(=O)NC2CCCC2)CC1`: the cell number change is -18.3%.

Consider `Cc1cccc([N+](=O)[O-])c1NC(=O)COC(=O)C1CCCO1` (configuration not stated), for which the cell number change stood at 3.18%. Further, the AC50 under setting [1] was 0.461 µM [rising, single point].

As for `COc1ccc(-c2csc3nc(-c4ccc(C)cc4)oc(=O)c23)cc1OC`, the cell number change is -4.52%.

As to `Cc1ccc(S(=O)(=O)Nc2cc3c(C(=O)Nc4ccccc4)c(C)oc3c3ccccc23)cc1`, the cell number change is -54.7%. In addition, under setting [2], the AC50 is 7.31 µM [falling, partial curve]. Under setting [1], the half-maximal activity concentration (AC50) is 6.51 µM [falling, full curve].

As for `COc1cccc(-c2nnc(SCC(=O)Nc3ccc(S(N)(=O)=O)cc3)n2C)c1`, the cell number change is -3.92%. In addition, the AC50 under setting [2] is 0.146 µM [falling, full curve, poor fit]. For the same compound, the AC50 under setting [1] was 18.4 µM [falling, single point].

As to `COc1ccc(-n2c(=S)[nH]c3cc(C(=O)NCc4ccc(F)cc4)ccc3c2=O)c(OC)c1`, the cell number change amounted to 1.35%. Besides, under setting [1], the AC50 is 0.651 µM [rising, partial curve, poor fit].

Turning to `Cc1ccccc1OCC(=O)OCC(=O)NCc1ccco1`, the cell number change is -12.7%. Moreover, the AC50 under setting [1] was 29.1 µM [rising, single point].

For the compound `O=C(Cc1c(F)cccc1Cl)Nc1ccccc1-c1ccccc1`, the cell number change is 27.4%. Further, the AC50 under setting [1] is 16.4 µM [rising, partial curve].

With `CCOC(=O)N1CCN(C(=O)CN(C2CCCCC2)S(=O)(=O)c2c(C)cc(C)cc2C)CC1`, the cell number change worked out at 53.2%. In addition, under setting [2], the half-maximal activity concentration (AC50) is 14.6 µM [rising, partial curve]. For the same compound, the AC50 under setting [1] was 23.1 µM [falling, single point].

`COc1ccc2cc(C3NC(=O)c4ccccc4N3)c(Cl)nc2c1` (configuration not stated): the cell number change was 6.41%. Besides, the AC50 under setting [2] was 0.146 µM [falling, full curve, poor fit]. The AC50 under setting [1] was 0.103 µM [falling, full curve, poor fit].
